Measured values reported in patent US20050131029A1, “Immunophilin ligand treatment of antiretroviral toxic neuropathy” (priority 2003, published 2005).
At least one compound was matched to its structure with a doubt left.

Legend:
[1] = tested on: primary DRG sensory neurons; assay: Neuronal mitochondrial toxicity assay (JC-1 red:green fluorescence in TTC-labeled neurons); settings: FK506 100 nM applied at the time of exposure to ddC 10 μM, 4 hours
[2] = tested on: primary DRG sensory neurons; assay: Morphological neuroprotection assay against ddC-induced neurotoxicity; type: cell-based, rat
[3] = tested on: primary DRG sensory neurons; type: cell-based; settings: ddC 10 μM, 18 hours; DEVD 10 μM, FK506 1 nM-1 μM, CSA 10 nM-10 μM

SMILES: C=CC[C@@H]1/C=C(\C)C[C@H](C)C[C@H](OC)[C@H]2O[C@@](O)(C(=O)C(=O)N3CCCC[C@H]3C(=O)O[C@H](/C(C)=C/[C@@H]3CC[C@@H](O)[C@H](OC)C3)[C@H](C)[C@@H](O)CC1=O)[C@H](C)C[C@@H]2OC [FK506]
- prevention of ddC-induced loss of membrane potential differential in neuronal mitochondria [1]: partially reversed
- prevention of ddC-induced reduction in number of neurites per neuron and total neuritic length ([2]; ddC 10 μM with FK506 (1 nM-1 μM) or CSA (10 nM-10 μM) added at 3 hours, analyzed 15 hours later): prevented the reduction in number of neurites per neuron and total neuritic length by ddC
- effect on morphological parameters in the absence of ddC ([2]; without ddC): did not have any appreciable effect
- prevention of ddC-induced neuronal cell death [3]: remarkable lack of positive “dead-cell” staining
